Measured values: patent publication US10111948B2, “Synthetic hapten carrier compositions and methods” (TRIA BIOSCIENCE CORP., priority 2014, dated 2018)
For at least one compound, name, drawing or mass did not settle the structure.

System: antisera isolated from TCC^Nic4 immunized mice
Experiment: competitive ELISA for specificity of nicotine binding by antisera
Experimental: FIG. 6 presents data showing specificity of nicotine binding by antisera isolated from TCC^Nic4 immunized mice determined by competitive ELISA for nicotine, cotinine, and acetylcholine.
Antibody affinity and the nicotine binding capacity of the anti-nicotine antibodies evoked in TCC^Nic4-immunized mice were examined. Mice were immunized with 2.5 μg TCC^Nic4 on days 0, 14, and 146, and antisera were obtained. Nicotine binding to antisera isolated from TCC^Nic4 immunized mice was determined by competitive ELISA for nicotine, cotinine, and acetylcholine.

Question: With `CC(=O)OCC[N+](C)(C)C` [acetylcholine] as the compound, how does the “binding by antibodies induced by TCC^Nic4 immunization” value (competitive ELISA) read?
Answer: did not bind

Question: What about the IC50 (competitor in competitive ELISA) of the same compound?
Answer: lack of inhibition
